Reference: publication PMC4217740
No constants are given. Whether binding was seen depends on the method and setting. Binding seen in cells or lysates may run through a third protein. Some binding calls cover weakened binding; strength is not graded here.

Chains of the proteins cited; added tags and fusions are not shown.
UniProt Q96EB6: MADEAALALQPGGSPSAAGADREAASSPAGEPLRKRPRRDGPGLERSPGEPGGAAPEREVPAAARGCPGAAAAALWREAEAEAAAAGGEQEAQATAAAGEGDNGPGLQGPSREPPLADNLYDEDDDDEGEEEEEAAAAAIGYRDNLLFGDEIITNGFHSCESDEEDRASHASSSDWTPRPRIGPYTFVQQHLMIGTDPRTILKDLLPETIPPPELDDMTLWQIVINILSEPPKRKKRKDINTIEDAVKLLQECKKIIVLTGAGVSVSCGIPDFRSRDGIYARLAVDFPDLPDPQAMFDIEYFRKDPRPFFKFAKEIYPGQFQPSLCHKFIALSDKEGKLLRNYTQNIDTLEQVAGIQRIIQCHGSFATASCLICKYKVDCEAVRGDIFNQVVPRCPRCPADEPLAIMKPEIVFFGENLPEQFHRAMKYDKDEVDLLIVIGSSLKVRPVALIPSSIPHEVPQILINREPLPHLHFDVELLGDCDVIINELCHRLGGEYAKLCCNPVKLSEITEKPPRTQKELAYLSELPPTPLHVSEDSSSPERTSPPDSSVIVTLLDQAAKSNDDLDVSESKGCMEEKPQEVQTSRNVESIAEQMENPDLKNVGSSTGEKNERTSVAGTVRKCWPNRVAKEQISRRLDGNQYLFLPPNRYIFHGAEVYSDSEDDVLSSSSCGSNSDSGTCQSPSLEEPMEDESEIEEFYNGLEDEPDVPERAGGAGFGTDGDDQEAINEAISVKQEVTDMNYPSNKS
UniProt Q9ULW0: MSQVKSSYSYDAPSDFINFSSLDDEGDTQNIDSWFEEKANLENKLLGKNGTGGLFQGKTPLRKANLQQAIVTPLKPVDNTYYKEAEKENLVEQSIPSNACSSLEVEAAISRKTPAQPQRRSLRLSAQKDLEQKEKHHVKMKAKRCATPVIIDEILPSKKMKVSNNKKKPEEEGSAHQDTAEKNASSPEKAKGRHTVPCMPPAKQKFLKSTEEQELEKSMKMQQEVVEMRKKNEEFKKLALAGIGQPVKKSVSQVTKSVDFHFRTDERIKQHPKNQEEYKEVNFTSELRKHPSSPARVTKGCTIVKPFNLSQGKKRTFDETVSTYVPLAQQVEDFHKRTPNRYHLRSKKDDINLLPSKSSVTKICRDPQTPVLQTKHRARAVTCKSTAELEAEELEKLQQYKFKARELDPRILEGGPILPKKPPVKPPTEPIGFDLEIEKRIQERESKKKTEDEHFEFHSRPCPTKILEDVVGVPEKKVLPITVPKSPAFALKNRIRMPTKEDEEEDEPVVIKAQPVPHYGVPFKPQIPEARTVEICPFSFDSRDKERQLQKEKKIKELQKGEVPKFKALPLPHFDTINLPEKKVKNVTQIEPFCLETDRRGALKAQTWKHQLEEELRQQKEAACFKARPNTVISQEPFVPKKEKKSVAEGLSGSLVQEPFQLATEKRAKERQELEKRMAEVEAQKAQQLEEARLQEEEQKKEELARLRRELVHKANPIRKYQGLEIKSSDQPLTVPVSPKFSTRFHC

Target: SIRT1 HDAC (human (endogenous in HeLa)) (UniProt Q96EB6)
Assay: co-IP; immunoprecipitation with SIRT1 antibodies (Upstate) from HeLa cells, with and without ionizing radiation (10 Gy); blot for TPX2; beads without antibodies as control

binding: binds
Substance: targeting protein for Xenopus kinesin like protein 2 (TPX2) (from UniProt Q9ULW0 1-747)
